Source: the supplement of paper PMC9233669
Variants at the background level are over-represented here.

How the values were obtained:
biotinyl-Ile-oxazolone = assay: self-aminoacylation, catalytic enhancement (BIO) (fold over background); higher = more active; k-Seq, kA / k0A0; sequences stand for … in GGGAAUGGAUCCACAUCUACGAAUUC…UUCACUGCAGACUUGACGAAGCUG
Procedure, shortened: (§1)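 Mutagenized RNA pools (0.43 μM; 21-nt variable region) were treated with 2–1250 μM of each biotinyl-aminoacyl-oxazolone. Conditions were 50 μL HEPES/NaCl/KCl/MgCl2/CaCl2 buffer, 5% acetonitrile, pH 6.9–7.0, room temperature, 90 minutes. Catalytic enhancement, the median kA relative to the uncatalyzed rate, was derived from streptavidin capture, qPCR and Illumina sequencing.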

biotinyl-Val-oxazolone = assay: self-aminoacylation, catalytic enhancement (BVO) (fold over background); higher = more active; k-Seq, kA / k0A0; sequences stand for … in GGGAAUGGAUCCACAUCUACGAAUUC…UUCACUGCAGACUUGACGAAGCUG
Procedure, shortened: as §1

biotinyl-Leu-oxazolone = assay: self-aminoacylation, catalytic enhancement (BLO) (fold over background); higher = more active; k-Seq, kA / k0A0; sequences stand for … in GGGAAUGGAUCCACAUCUACGAAUUC…UUCACUGCAGACUUGACGAAGCUG
Procedure, shortened: as §1

biotinyl-Met-oxazolone = assay: self-aminoacylation, catalytic enhancement (BMO) (fold over background); higher = more active; k-Seq, kA / k0A0; sequences stand for … in GGGAAUGGAUCCACAUCUACGAAUUC…UUCACUGCAGACUUGACGAAGCUG
Procedure, shortened: as §1

| Sequence | self-aminoacylation (biotinyl-Ile-oxazolone) | self-aminoacylation (biotinyl-Val-oxazolone) | self-aminoacylation (biotinyl-Leu-oxazolone) | self-aminoacylation (biotinyl-Met-oxazolone) |
| --- | --- | --- | --- | --- |
| AAGCGUGCUAAUAGUCGCAAG [Fam3.1 aminoacylation ribozyme variant] | 2.02 | 2.05 | 1.85 |  |
| AAGGAUGCUAAUAGUCGCAAG [Fam3.1 aminoacylation ribozyme variant] | 1.48 | 1.15 | 1.18 | 1.67 |
| AAGUCUGCUAAUAGUCGCAAG [Fam3.1 aminoacylation ribozyme variant] | 1.47 | 1.49 | 1.66 |  |
| AAGUCUGCUAAUAGUGGCAAG [Fam3.1 aminoacylation ribozyme variant] | 0.678 | 0.765 | 0.866 | 0.98 |
| AAGUUUGCAAAUAGUCGCGAG [Fam3.1 aminoacylation ribozyme variant] | 1.41 | 1.44 | 1.3 | 1.3 |
| AAGUUUGCCAAUAGUCGCAAU [Fam3.1 aminoacylation ribozyme variant] | 2 | 1.5 | 1.8 |  |
| AAGUUUGCUAAUAGUCGCGAA [Fam3.1 aminoacylation ribozyme variant] | 1.95 | 1.66 | 1.47 | 1.93 |
| AAGUUUGCUAAUAGUCGGAAU [Fam3.1 aminoacylation ribozyme variant] | 1.37 | 1.41 | 1.41 | 1.5 |
| AAGUUUGCUAAUAUCCGCAAG [Fam3.1 aminoacylation ribozyme variant] | 0.911 | 0.886 | 0.845 | 0.725 |
| AAGUUUGCUAAUUGUCGCAAA [Fam3.1 aminoacylation ribozyme variant] | 1.48 | 1.27 | 1.81 | 1.51 |
| AAGUUUGCUAGUAGUCGCACG [Fam3.1 aminoacylation ribozyme variant] | 1.06 | 1.05 | 1.12 | 0.765 |
| AAUCACCUCGGUCAUCGGGUG [Fam2.2 aminoacylation ribozyme variant] | 4.07 | 5.23 | 4.99 | 4.76 |
| AAUGUUGCUAAUAGUCGCAAG [Fam3.1 aminoacylation ribozyme variant] | 1.71 | 1.53 | 1.39 | 1.48 |
| AAUUGUGCUAAUAGUCGCAAG [Fam3.1 aminoacylation ribozyme variant] | 1.93 | 1.75 | 2.18 | 2.02 |
| ACACACUUCAAGGAAUCGGUC [Fam1B.1 aminoacylation ribozyme variant] | 1.33 | 1.1 | 1.54 | 1.21 |
| ACACAGUUCAAGCAAUCGGUC [Fam1B.1 aminoacylation ribozyme variant] | 1.8 | 1.76 | 1.71 | 1.74 |
| ACGCACUUCAAGCAAUCGGUC [Fam1B.1 aminoacylation ribozyme variant] | 1.53 | 1.35 | 1.63 | 1.58 |
| ACGUUUGCUAAUAGUCGCAAA [Fam3.1 aminoacylation ribozyme variant] |  | 1.53 | 1.64 | 1.54 |
| ACUACCCUGGUCAUCGGGUGA [Fam2.1 aminoacylation ribozyme variant] | 20.6 | 20.9 | 50.1 | 48 |
| AGGUAUGCUAAUAGUCGCAAG [Fam3.1 aminoacylation ribozyme variant] | 1.81 | 1.53 | 1.83 | 1.84 |
| AUAAUUCAAACAAUCGGUCUG [Fam1A.1 aminoacylation ribozyme variant] | 0.804 | 0.749 | 0.779 | 0.677 |
| AUGACCCUGGUCAACGAGUGA [Fam2.1 aminoacylation ribozyme variant] | 3.48 | 3.52 | 6.02 | 5.77 |
| AUGUUUGCUAAUAGUCGUAAG [Fam3.1 aminoacylation ribozyme variant] | 1.11 | 1.11 | 0.831 | 1.11 |
| AUUAACCUAGGUAAUCGGGUG [Fam2.2 aminoacylation ribozyme variant] | 1.78 | 1.66 | 2.3 | 2.62 |
| AUUAACGUAGGUCAUCGGGUG [Fam2.2 aminoacylation ribozyme variant] | 2.52 | 3.05 | 3.84 | 4.05 |

| Sequence | self-aminoacylation (biotinyl-Ile-oxazolone) | self-aminoacylation (biotinyl-Val-oxazolone) | self-aminoacylation (biotinyl-Leu-oxazolone) | self-aminoacylation (biotinyl-Met-oxazolone) |
| --- | --- | --- | --- | --- |
| AUUACCCUGGACAUUGAGUGA [Fam2.1 aminoacylation ribozyme variant] | 4.56 | 4.58 | 10.4 | 11.3 |
| AUUACCCUGGCCGUCGAGUGA [Fam2.1 aminoacylation ribozyme variant] | 1.34 | 1.78 | 1.24 | 1.38 |
| AUUACCCUGGUCAUUGAGUGG [Fam2.1 aminoacylation ribozyme variant] | 1.39 | 1.76 | 2.66 | 2.54 |
| AUUACCCUGGUCGUCAAGUGA [Fam2.1 aminoacylation ribozyme variant] | 0.713 | 0.836 | 0.821 | 0.773 |
| AUUAUCCUGGUCAUCGAGUAA [Fam2.1 aminoacylation ribozyme variant] | 1.43 | 1.39 | 1.85 | 2.03 |
| AUUCACCUAGGUCAUCGCGGG [Fam2.2 aminoacylation ribozyme variant] | 2.97 | 2.47 | 4.05 | 3.25 |
| AUUCACCUAGGUCAUUGGGUC [Fam2.2 aminoacylation ribozyme variant] | 0.922 | 0.867 | 0.89 | 0.808 |
| AUUCACCUAGGUGAUCGGGUG [Fam2.2 aminoacylation ribozyme variant] | 2.52 | 2.62 | 3.27 | 2.81 |
| AUUCACCUAGUUCAUCGGGUA [Fam2.2 aminoacylation ribozyme variant] | 1.6 | 1.65 | 1.71 | 1.72 |
| AUUUACCUAGCUCAUCGGGUG [Fam2.2 aminoacylation ribozyme variant] | 2.01 | 2.4 | 2.58 | 2.16 |
| CAACGUCAAACAAUCGGUCUG [Fam1A.1 aminoacylation ribozyme variant] | 1.31 | 1.39 | 1.36 | 1.56 |
| CAGUUUGCUAAUAGUCGUAAG [Fam3.1 aminoacylation ribozyme variant] | 0.986 | 0.941 | 1.09 | 0.889 |
| CCAAACUUCAACCAAUCGGUC [Fam1B.1 aminoacylation ribozyme variant] | 1.29 | 1.17 | 1.69 | 1.25 |
| CCACACGUCAACCAAUCGGUC [Fam1B.1 aminoacylation ribozyme variant] | 1.09 | 1.47 | 1.17 | 1.07 |
| CCACACUACAAGCGAUCGGUC [Fam1B.1 aminoacylation ribozyme variant] | 1.09 | 1.29 | 1.24 | 0.977 |
| CCACACUUCAAAAAAUCGGUC [Fam1B.1 aminoacylation ribozyme variant] | 1.5 | 1.22 | 1.34 | 1.16 |
| CCACACUUCAAACAAUCCGUC [Fam1B.1 aminoacylation ribozyme variant] | 0.83 | 0.993 | 0.682 | 0.559 |
| CCACACUUCAACCGAUCGGUC [Fam1B.1 aminoacylation ribozyme variant] | 1.48 | 1.7 | 1.22 | 1.28 |
| CCACACUUCACGCAAUCGAUC [Fam1B.1 aminoacylation ribozyme variant] | 0.568 | 0.606 | 0.514 | 0.55 |
| CCACACUUCAGGUAAUCGGUC [Fam1B.1 aminoacylation ribozyme variant] | 0.805 | 1.07 | 0.824 | 0.887 |
| CCACCCUUCAAGCAAUCGGGC [Fam1B.1 aminoacylation ribozyme variant] |  |  | 1.83 | 1.56 |
| CCCCACGUCAAGCAAUCGGUC [Fam1B.1 aminoacylation ribozyme variant] | 1.58 |  | 1.33 | 1.39 |
| CUUCACCUAGGUCAUCGGCUG [Fam2.2 aminoacylation ribozyme variant] | 1.53 |  | 1.68 | 1.53 |
| GAGUUUCCUAAUAGUCGCAAG [Fam3.1 aminoacylation ribozyme variant] |  |  | 1.88 | 1.85 |
